This note sets out measurements from paper PMC7862700.

The chains behind the UniProt entries cited, without tags or fusion partners. Where a name states a change or a piece, a line headed by the entry shows the natural chain unless it says otherwise.
UniProt Q99607: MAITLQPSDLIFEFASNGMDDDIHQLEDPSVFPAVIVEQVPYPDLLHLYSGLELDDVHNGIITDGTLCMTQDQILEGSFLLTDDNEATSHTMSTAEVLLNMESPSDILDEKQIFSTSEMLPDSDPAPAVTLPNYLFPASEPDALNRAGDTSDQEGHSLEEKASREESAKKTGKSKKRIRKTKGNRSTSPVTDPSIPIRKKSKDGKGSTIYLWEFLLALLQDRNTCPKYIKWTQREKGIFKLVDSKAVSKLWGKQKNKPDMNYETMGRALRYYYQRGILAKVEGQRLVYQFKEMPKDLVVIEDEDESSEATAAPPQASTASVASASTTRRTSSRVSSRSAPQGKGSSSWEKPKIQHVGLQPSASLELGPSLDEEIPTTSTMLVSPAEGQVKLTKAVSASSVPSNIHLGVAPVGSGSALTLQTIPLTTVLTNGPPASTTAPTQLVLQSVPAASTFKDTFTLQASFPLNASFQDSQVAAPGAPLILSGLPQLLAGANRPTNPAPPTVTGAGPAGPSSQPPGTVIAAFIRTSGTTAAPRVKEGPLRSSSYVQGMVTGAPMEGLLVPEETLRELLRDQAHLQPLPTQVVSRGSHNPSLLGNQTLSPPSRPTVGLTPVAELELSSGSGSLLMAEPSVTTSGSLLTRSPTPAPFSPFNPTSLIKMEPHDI
UniProt Q01892: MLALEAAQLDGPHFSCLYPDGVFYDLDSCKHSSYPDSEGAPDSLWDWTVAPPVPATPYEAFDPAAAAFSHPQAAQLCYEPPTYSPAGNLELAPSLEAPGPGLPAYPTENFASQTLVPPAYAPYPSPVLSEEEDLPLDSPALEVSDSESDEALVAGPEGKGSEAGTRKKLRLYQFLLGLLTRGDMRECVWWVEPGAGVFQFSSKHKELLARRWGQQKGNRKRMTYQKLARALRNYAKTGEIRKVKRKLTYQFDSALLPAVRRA

The list shows a part of the results, in another mix than the full data. At the low end of the ranking the order means little.

What all share (experiment): DAPPL (digital affinity profiling via proximity ligation, sequencing)
What all share (details): 10 mM Tris-HCl pH 7.5, 50 mM NaCl, 1 mM DTT, 4% glycerol, room temperature, 30 min; GST-TFs on glutathione beads, 16-mer random dsDNA library, 0.1% …; high values mean tight binding; double strand, one strand shown; scale: fold enrichment (6-mer frequency, TF over GST control)

The target of one assay is ELF4 (UniProt Q99607).
For another assay, the target named is T1, ETV3L (UniProt Q6ZN32).
T1 sequence: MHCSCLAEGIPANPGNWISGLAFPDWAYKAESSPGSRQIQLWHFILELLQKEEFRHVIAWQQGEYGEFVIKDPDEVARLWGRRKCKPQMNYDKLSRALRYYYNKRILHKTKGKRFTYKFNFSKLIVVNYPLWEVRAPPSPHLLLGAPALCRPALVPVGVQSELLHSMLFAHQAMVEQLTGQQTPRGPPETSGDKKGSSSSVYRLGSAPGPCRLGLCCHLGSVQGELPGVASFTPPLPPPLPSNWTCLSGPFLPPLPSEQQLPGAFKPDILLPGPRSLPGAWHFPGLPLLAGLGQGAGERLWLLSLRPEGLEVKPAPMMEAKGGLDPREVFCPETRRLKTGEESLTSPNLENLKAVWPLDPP

The next assay concerns the target T2, EHF (UniProt Q9NZC4).
T2 sequence: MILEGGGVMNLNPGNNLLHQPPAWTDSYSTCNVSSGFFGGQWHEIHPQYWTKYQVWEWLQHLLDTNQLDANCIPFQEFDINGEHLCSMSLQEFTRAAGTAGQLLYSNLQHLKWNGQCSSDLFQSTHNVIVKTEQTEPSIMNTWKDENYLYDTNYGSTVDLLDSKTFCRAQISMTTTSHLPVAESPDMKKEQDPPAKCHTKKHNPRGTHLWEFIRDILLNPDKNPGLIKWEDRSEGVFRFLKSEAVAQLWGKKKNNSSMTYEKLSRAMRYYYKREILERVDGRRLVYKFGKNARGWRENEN

The target in the next assay is SPIB (UniProt Q01892).
For another assay, the target named is T3, ETV2 (UniProt O00321).
T3 sequence: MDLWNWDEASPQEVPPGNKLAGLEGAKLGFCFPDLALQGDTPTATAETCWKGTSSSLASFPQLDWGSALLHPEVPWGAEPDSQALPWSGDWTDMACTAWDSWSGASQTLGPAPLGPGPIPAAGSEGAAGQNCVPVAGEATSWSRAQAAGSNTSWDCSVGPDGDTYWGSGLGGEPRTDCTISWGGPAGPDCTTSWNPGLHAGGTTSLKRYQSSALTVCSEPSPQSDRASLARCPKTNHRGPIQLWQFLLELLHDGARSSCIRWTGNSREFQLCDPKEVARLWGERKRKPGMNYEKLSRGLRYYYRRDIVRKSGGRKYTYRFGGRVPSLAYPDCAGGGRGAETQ

As for AAATGA, the binding signal with ELF4 and with ETV3L was 1.29 in each case.
Take ACTTTA: the binding signal with EHF was 1.2; with SPIB, 1.19; with ELF4, 1.23; with ETV2 it was 1.26.
ACTCCT: the binding signal came to 1.59 with ELF4, 1.38 with ETV2 and 1.54 in the assay with ETV3L.
Take TTGATA: the binding signal stood at 1.29 with ELF4 and 1.27 with ETV3L.
For TGGATG, the binding signal in the assay with EHF came out at 1.5; with ELF4, 1.49; with ETV2, 1.49.
As for TGGTAC, the binding signal in the assay with ELF4 is 1.08; with ETV3L, 1.21.
Consider ATCTCC, for which the binding signal with ELF4 was found to be 1.57; with ETV3L it was 1.46.
As to GAACCC, the binding signal was found to be 1.22 with ELF4, 1 with ETV2 and 1.19 with ETV3L.
On to CCTAGA, for which the binding signal with EHF worked out at 0.923; with SPIB, 0.964; with ELF4, 0.996; in the assay with ETV2, 0.861; in the assay with ETV3L, 0.942.
Turning to CATCTG, the binding signal in the assay with ELF4 was 1.25; in the assay with ETV3L it was 1.23.
For the sequence TACTCG, the values for the binding signal in the assay with ELF4 and with ETV3L were 1.22 and 1.27, respectively.
Regarding ACCGAT, the binding signal with ELF4 is 1.24; in the assay with ETV3L, 1.11.
On to AAGAAA, for which the binding signal with ELF4 came to 1.19; in the assay with ETV3L, 1.26.
Regarding TCCTAC, the binding signal was 1.45 with EHF, 1.41 with ELF4 and 1.59 with ETV2.
TTCCGT: the binding signal was 2 in the assay with EHF, 1.67 in the assay with ELF4 and 1.88 with ETV2.
On the same counts, the results for TGCTTT are 1.04, 1.14 and 1.12.
As for TCACAC, the binding signal was 1.3 in the assay with EHF, 1.36 with ELF4 and 1.29 with ETV2.
AAATTG: the binding signal worked out at 1.27 in the assay with ELF4 and 1.29 with ETV3L.
As for TTAAGC, the binding signal amounted to 1.13 with EHF, 1.22 in the assay with ELF4, 1.03 with ETV2 and 1.22 in the assay with ETV3L.
With TACTGA, the binding signal in the assay with SPIB is 0.848; in the assay with ELF4, 1.11; with ETV2, 1.12.
Turning to AATTGC, the binding signal with ELF4 is 1.36; with ETV3L, 1.35.
As to CCCTTT, the binding signal with EHF worked out at 1.35; in the assay with SPIB, 1.49; with ELF4 it was 1.49; in the assay with ETV2, 1.33.
Take AAGTAA: the binding signal was found to be 1.27 with ELF4 and 1.31 in the assay with ETV3L.
Regarding GCTATA, the binding signal in the assay with EHF was 1.16; in the assay with SPIB, 1.25; with ELF4, 1.14; with ETV2, 1.2; with ETV3L, 1.08.
Take TCCTTT: the binding signal in the assay with SPIB amounted to 1.67; with ELF4 it was 1.77; with ETV2 it was 1.47; with ETV3L, 1.85.
Consider TAATGA, for which the binding signal with EHF is 1.2; with ELF4 it was 1.17; in the assay with ETV2 it was 1.13.
With AACGTT, the binding signal stood at 1.09 with EHF, 1.14 with ELF4 and 0.972 with ETV2.
With TTCTTT, the binding signal turned out to be 1.28 in the assay with ELF4 and 1.27 in the assay with ETV3L.
As to CTTTAA, the values for the binding signal with ELF4 and with ETV3L were 1.26 and 1.34, respectively.
AATTCA: the binding signal was 1.33 with ELF4, 1.36 with ETV2 and 1.35 with ETV3L.
Consider CTTTCT, for which the binding signal came out at 1.48 with ELF4 and 1.5 with ETV3L.
Regarding ATGGAT, the binding signal with ELF4 stood at 1.11; with ETV3L, 1.16.
Consider TAAAAG, for which the binding signal is 1.17 with ELF4 and 1.1 with ETV3L.
Turning to GATTCT, the binding signal was 1.26 in the assay with EHF, 1.19 with ELF4 and 1.15 with ETV2.
In the case of ATACAA, the binding signal amounted to 1.17 in the assay with ELF4, 1.04 with ETV2 and 1.12 with ETV3L.
As to GTTCTT, the values for the binding signal in the assay with ELF4 and with ETV3L were 1.18 and 1.28, respectively.
In the case of ATAAAC, the binding signal with SPIB amounted to 1.19; in the assay with ELF4, 1.16; with ETV2 it was 1.19.
Consider ATGCAA, for which the binding signal came out at 1.25 with EHF, 1.26 with SPIB, 1.25 with ELF4 and 1.26 in the assay with ETV2.
Regarding TACCAA, the binding signal was found to be 1.13 in the assay with EHF, 1.13 in the assay with SPIB and 1.2 in the assay with ELF4.
ATCTTT: the binding signal stood at 1.27 with EHF and 1.22 with ELF4.
On to CGTAAT, for which the figures for the binding signal with EHF and in the assay with ELF4 were 1.13 and 1.22, respectively.
As for TATCCT, the results for the binding signal with SPIB and in the assay with ELF4 were 1.8 and 1.65, respectively.
Take TCGCTC: the binding signal with EHF came out at 1.19; with ELF4 it was 1.31.
Regarding CTCACT, the figures for the binding signal with EHF, with ELF4 and in the assay with ETV3L were 1.56, 1.53 and 1.52, respectively.
Turning to TTCCAG, the binding signal with EHF amounted to 0.999; with ELF4, 1.17.
On to CGATCG, for which the binding signal in the assay with EHF came out at 1.07; with SPIB it was 1.03; with ELF4, 1.04.
Turning to TACAAG, the binding signal in the assay with SPIB worked out at 0.974; with ELF4 it was 1.1.
Consider AAATGG, for which the binding signal with EHF came out at 1.55; in the assay with SPIB, 1.43; with ELF4 it was 1.49; in the assay with ETV3L it was 1.54.
